Values from PubChem BioAssay AID1159578 (Peter MacCallum Cancer Centre, 2015).
Assay: 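Genome-wide hunt for genes controlling movement of lymphatic endothelial cells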 (primary screen). Cells: human lymphatic endothelial cells. Knock-down reagent: siRNA pool against human genes, 40 nM. Duration: 48 h after transfection. Measurement: 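High-content imaging of dye-stained cells in a scratch assay measures filled wound area and nuclei per well; duplicate means given as ratio to mock and robust z-score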. Reading the numbers: migration robust z-score: higher = faster migration into the scratch; migration relative to mock: higher = more scratch area covered than mock; nuclei per well: higher = more cells in the well. Call rule: 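Migration changed when robust z exceeds 2 or falls below -2 and mean nuclei number is at least 3300; otherwise not called changed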. Meaning of the calls: active = migration changed; inactive = no migration change, or too few cells.
The whole screen tested about 18,000 reagents; this is an unselected part. About 1,030 of them (5.7%) were called active. 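Inactive calls also include pools with fewer than 3300 nuclei, whose migration was not assessed.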 The raw values are shown without normalisation. A number with no mark means an inactive call.

| Gene | PubChem SID | migration robust z-score | migration class with cell-count check | migration relative to mock | nuclei per well, duplicate mean |
| --- | --- | --- | --- | --- | --- |
| DCAF10 (GeneID 79269) | SID255360267 | 0.92 | migration z between -2 and 2; enough cells | 1.12 | 7302 |
| OR5D18 (GeneID 219438) | SID255364167 | 0.9 | migration z between -2 and 2; enough cells | 1.12 | 5745 |
| CYP2C18 (GeneID 1562) | SID255349204 | -0.2 | migration z between -2 and 2; enough cells | 0.76 | 5778 |
| KLKB1 (GeneID 3818) | SID255350655 | -1.43 | migration z between -2 and 2; enough cells | 0.53 | 6216 |
| GJB1 (GeneID 2705) | SID255349897 | -0.18 | migration z between -2 and 2; enough cells | 0.77 | 5400 |
| GTF3C2 (GeneID 2976) | SID255350098 | -1.79 | migration z between -2 and 2; enough cells | 0.46 | 5083 |
| CCSER2 (GeneID 54462) | SID255358020 | 0.52 | migration z between -2 and 2; enough cells | 1.02 | 5636 |
| PLCB3 (GeneID 5331) | SID255351617 | -0.12 | migration z between -2 and 2; enough cells | 0.86 | 6396 |
| WTAP (GeneID 9589) | SID255354397 | -0.06 | migration z between -2 and 2; enough cells | 0.87 | 6277 |
| PMS2 (GeneID 5395) | SID255351662 | -0.13 | migration z between -2 and 2; enough cells | 0.78 | 5529 |
| PAX8 (GeneID 7849) | SID255353316 | -0.84 | migration z between -2 and 2; enough cells | 0.66 | 7196 |
| SLC11A1 (GeneID 6556) | SID255352483 | 0.24 | migration z between -2 and 2; enough cells | 0.85 | 5582 |
| CHRNA7 (GeneID 1139) | SID255348923 | -0.6 | migration z between -2 and 2; enough cells | 0.69 | 4564 |
| TRIM2 (GeneID 23321) | SID255356159 | 0.83 | migration z between -2 and 2; enough cells | 0.96 | 6830 |
| LMTK1 (GeneID 9625) | SID255354420 | -2.34 (active) | migration z below -2; enough cells | 0.36 | 3372 |
| TMEM158 (GeneID 25907) | SID255356544 | 1.52 | migration z between -2 and 2; enough cells | 1.27 | 7426 |
| SPATA45 (GeneID 149643) | SID255363425 | 0.06 | migration z between -2 and 2; enough cells | 0.9 | 4461 |
| MTCH2 (GeneID 23788) | SID255356433 | 1.16 | migration z between -2 and 2; enough cells | 1.19 | 4571 |
| MTHFD2L (GeneID 441024) | SID255365928 | -0.92 | migration z between -2 and 2; enough cells | 0.66 | 6340 |
| OTOR (GeneID 56914) | SID255359161 | -0.88 | migration z between -2 and 2; enough cells | 0.66 | 5454 |

A few values from the entries so far.
KLKB1 (GeneID 3818) [SID255350655], migration robust z-score = -1.43
For “nuclei per well, duplicate mean”, TRIM2 (GeneID 23321) [SID255356159] shows 6830
CHRNA7 (GeneID 1139) [SID255348923], migration robust z-score = -0.6
Result for OR5D18 (GeneID 219438) [SID255364167] under “migration robust z-score”: 0.9
Under “migration robust z-score”, PAX8 (GeneID 7849) [SID255353316] is entered as -0.84
For “migration relative to mock”, TMEM158 (GeneID 25907) [SID255356544] has 1.27

The list goes on:
| Gene | PubChem SID | migration robust z-score | migration class with cell-count check | migration relative to mock | nuclei per well, duplicate mean |
| --- | --- | --- | --- | --- | --- |
| TMTC1 (GeneID 83857) | SID255361103 | 0 | migration z between -2 and 2; enough cells | 0.89 | 6272 |
| OXSM (GeneID 54995) | SID255358333 | -0.54 | migration z between -2 and 2; enough cells | 0.74 | 6465 |
| VWA8 (GeneID 23078) | SID255355973 | -0.36 | migration z between -2 and 2; enough cells | 0.8 | 6164 |
| DCAF8 (GeneID 50717) | SID255357356 | -0.8 | migration z between -2 and 2; enough cells | 0.68 | 4588 |
| TRAK2 (GeneID 66008) | SID255360135 | -0.6 | migration z between -2 and 2; enough cells | 0.69 | 6704 |
| LBX2 (GeneID 85474) | SID255361713 | -0.64 | migration z between -2 and 2; enough cells | 0.71 | 5842 |
| NMRK1 (GeneID 54981) | SID255358324 | -1.32 | migration z between -2 and 2; enough cells | 0.54 | 5491 |
| SPANXA1 (GeneID 30014) | SID255357282 | -0.48 | migration z between -2 and 2; enough cells | 0.76 | 4692 |
| ABHD3 (GeneID 171586) | SID255363941 | -0.58 | migration z between -2 and 2; enough cells | 0.74 | 6209 |
| CACNA1F (GeneID 778) | SID255348652 | 0.57 | migration z between -2 and 2; enough cells | 0.92 | 5738 |
| MST1 (GeneID 4485) | SID255351041 | 0.96 | migration z between -2 and 2; enough cells | 0.99 | 5204 |
| CFDP1 (GeneID 10428) | SID255355070 | 0.4 | migration z between -2 and 2; enough cells | 0.99 | 4933 |
| CHMP1A (GeneID 5119) | SID255351450 | -0.11 | migration z between -2 and 2; enough cells | 0.78 | 4589 |
| TBC1D8B (GeneID 54885) | SID255358242 | -0.29 | migration z between -2 and 2; enough cells | 0.82 | 5762 |
| MILR1 (GeneID 284021) | SID255364729 | 0.5 | migration z between -2 and 2; enough cells | 1.02 | 6652 |
| CYP4F8 (GeneID 11283) | SID255355736 | 0.8 | migration z between -2 and 2; enough cells | 0.96 | 7632 |
| AOC2 (GeneID 314) | SID255348324 | -0.52 | migration z between -2 and 2; enough cells | 0.75 | 6503 |
| KCNC1 (GeneID 3746) | SID255350594 | -0.52 | migration z between -2 and 2; enough cells | 0.7 | 4978 |
| HCN1 (GeneID 348980) | SID255365257 | 0.1 | migration z between -2 and 2; enough cells | 0.82 | 5863 |
| TMTC3 (GeneID 160418) | SID255363703 | 1.54 | migration z between -2 and 2; enough cells | 1.29 | 7018 |
| SEPTIN9 (GeneID 10801) | SID255355362 | 0.34 | migration z between -2 and 2; enough cells | 0.87 | 5174 |
| AGK (GeneID 55750) | SID255358829 | 0.13 | migration z between -2 and 2; enough cells | 0.83 | 4619 |
| FXYD1 (GeneID 5348) | SID255351633 | -0.44 | migration z between -2 and 2; enough cells | 0.72 | 3559 |
| OR11L1 (GeneID 391189) | SID255365682 | 1.01 | migration z between -2 and 2; enough cells | 1.15 | 6582 |
| KCNAB3 (GeneID 9196) | SID255354106 | 0 | migration z between -2 and 2; enough cells | 0.8 | 5718 |
| UBE2H (GeneID 7328) | SID255353036 | 1.22 | migration z between -2 and 2; enough cells | 1.04 | 5925 |
| NRP2 (GeneID 8828) | SID255353847 | 0.31 | migration z between -2 and 2; enough cells | 0.86 | 5507 |
| LHFPL7 (GeneID 255349) | SID255364493 | 0.6 | migration z between -2 and 2; enough cells | 1.04 | 5044 |
| SLC25A23 (GeneID 79085) | SID255360207 | -0.57 | migration z between -2 and 2; enough cells | 0.7 | 5846 |
| ENOPH1 (GeneID 58478) | SID255359628 | -0.86 | migration z between -2 and 2; enough cells | 0.64 | 6702 |
| ASPHD1 (GeneID 253982) | SID255364439 | -0.54 | migration z between -2 and 2; enough cells | 0.74 | 8140 |
| DPH1 (GeneID 1801) | SID255349354 | -0.73 | migration z between -2 and 2; enough cells | 0.7 | 5716 |
| APLNR (GeneID 187) | SID255348240 | 0.93 | migration z between -2 and 2; enough cells | 0.99 | 4571 |
| SGPP2 (GeneID 130367) | SID255362861 | 0.1 | migration z between -2 and 2; enough cells | 0.82 | 5403 |
| ADGRL2 (GeneID 23266) | SID255356119 | -0.54 | migration z between -2 and 2; enough cells | 0.7 | 5560 |
| DEFB103A (GeneID 414325) | SID255365867 | -1.44 | migration z between -2 and 2; enough cells | 0.52 | 5104 |
| CD177 (GeneID 57126) | SID255359284 | 1.58 | migration z between -2 and 2; enough cells | 1.29 | 7146 |
